We go through three molecules from publication PMC6755085, “Cyclic oligoadenylate signalling mediates Mycobacterium tuberculosis CRISPR defence” (Nucleic Acids Research, 2019).

Protein sequences, listed by entry. Tags and fused reporters are not part of them. Lines headed by an entry give the natural chain unless they say otherwise; changes in a name come on top.
UniProt P9WJF9: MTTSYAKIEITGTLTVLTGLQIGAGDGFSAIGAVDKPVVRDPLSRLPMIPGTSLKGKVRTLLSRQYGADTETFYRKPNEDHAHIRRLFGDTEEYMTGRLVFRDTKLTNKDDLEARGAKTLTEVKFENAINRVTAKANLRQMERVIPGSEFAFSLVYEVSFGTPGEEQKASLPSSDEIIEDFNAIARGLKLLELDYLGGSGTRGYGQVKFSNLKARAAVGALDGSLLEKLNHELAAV

No constants are given. Whether binding was seen depends on the method and setting. In cells and extracts the contact can be indirect. These calls come from enrichment with a bait or labelling near it, and not all partners need be listed. Where a sequence is shown, tags or fusion partners need not be part of it.

Sequences and labels used below:
T1: Mycobacterium tuberculosis Csm4 (Cas5), His6-tagged (Mycobacterium tuberculosis) (UniProt P9WJF6)
T1 sequence: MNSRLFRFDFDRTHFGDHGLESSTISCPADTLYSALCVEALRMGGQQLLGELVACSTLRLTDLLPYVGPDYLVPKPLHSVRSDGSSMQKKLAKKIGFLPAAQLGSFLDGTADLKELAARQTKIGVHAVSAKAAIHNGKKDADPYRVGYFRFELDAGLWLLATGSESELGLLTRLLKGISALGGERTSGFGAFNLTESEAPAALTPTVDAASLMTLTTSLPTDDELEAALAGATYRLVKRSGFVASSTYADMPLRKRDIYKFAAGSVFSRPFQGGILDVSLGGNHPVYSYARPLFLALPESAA

B1: Mycobacterium tuberculosis Csm5 (protein, UniProt P9WJF4 1-375)
chain: MNTYLKPFELTLRCLGPVFIGSGEKRTSKEYHVEGDRVYFPDMELLYADIPAHKRKSFEAFVMNTDGAQATAPLKEWVEPNAVKLDPAKHRGYEVKIGSIEPRRASRGRGGRMTRKKLTLNEIHAFIKDPLGRPYVPGSTVKGMLRSIYLQSLVHKRTAQPVRVPGHQTREHRQYGERFERKELRKSGRPNTRPQDAVNDLFQAIRVTDSPALRTSDLLICQKMDMNVHGKPDGLPLFRECLAPGTSISHRVVVDTSPTARGGWREGERFLETLAETAASVNQARYAEYRAMYPGVNAIVGPIVYLGGGAGYRSKTFVTDQDDMAKVLDAQFGKVVKHVDKTRELRVSPLVLKRTKIDNICYEMGQCELSIRRAE

The assay has as its target T1, Mycobacterium tuberculosis Csm4 (Cas5), His6-tagged (Mycobacterium tuberculosis). Nature of the assay: affinity purification with mass spectrometry.
Mycobacterium canettii Csm2 (Cas11): the binding entry is on record as “binds”.

Regarding “Mycobacterium tuberculosis Csm3 (Cas7) (from UniProt P9WJF9)”, the binding entry is recorded as “binds”.

With B1, the binding entry was “binds”.
